Reference: PMC4226561
No constants are given. Whether binding was seen depends on the method and setting. Binding seen in cells or lysates may run through a third protein. Some entries that bind do so weakly or less than the wild type. Where a sequence is shown, tags or fusion partners need not be part of it.

Target: T1, CESA6, full length, split-YFP (BiFC) fusion (Arabidopsis thaliana), Q94JQ6
T1 chain: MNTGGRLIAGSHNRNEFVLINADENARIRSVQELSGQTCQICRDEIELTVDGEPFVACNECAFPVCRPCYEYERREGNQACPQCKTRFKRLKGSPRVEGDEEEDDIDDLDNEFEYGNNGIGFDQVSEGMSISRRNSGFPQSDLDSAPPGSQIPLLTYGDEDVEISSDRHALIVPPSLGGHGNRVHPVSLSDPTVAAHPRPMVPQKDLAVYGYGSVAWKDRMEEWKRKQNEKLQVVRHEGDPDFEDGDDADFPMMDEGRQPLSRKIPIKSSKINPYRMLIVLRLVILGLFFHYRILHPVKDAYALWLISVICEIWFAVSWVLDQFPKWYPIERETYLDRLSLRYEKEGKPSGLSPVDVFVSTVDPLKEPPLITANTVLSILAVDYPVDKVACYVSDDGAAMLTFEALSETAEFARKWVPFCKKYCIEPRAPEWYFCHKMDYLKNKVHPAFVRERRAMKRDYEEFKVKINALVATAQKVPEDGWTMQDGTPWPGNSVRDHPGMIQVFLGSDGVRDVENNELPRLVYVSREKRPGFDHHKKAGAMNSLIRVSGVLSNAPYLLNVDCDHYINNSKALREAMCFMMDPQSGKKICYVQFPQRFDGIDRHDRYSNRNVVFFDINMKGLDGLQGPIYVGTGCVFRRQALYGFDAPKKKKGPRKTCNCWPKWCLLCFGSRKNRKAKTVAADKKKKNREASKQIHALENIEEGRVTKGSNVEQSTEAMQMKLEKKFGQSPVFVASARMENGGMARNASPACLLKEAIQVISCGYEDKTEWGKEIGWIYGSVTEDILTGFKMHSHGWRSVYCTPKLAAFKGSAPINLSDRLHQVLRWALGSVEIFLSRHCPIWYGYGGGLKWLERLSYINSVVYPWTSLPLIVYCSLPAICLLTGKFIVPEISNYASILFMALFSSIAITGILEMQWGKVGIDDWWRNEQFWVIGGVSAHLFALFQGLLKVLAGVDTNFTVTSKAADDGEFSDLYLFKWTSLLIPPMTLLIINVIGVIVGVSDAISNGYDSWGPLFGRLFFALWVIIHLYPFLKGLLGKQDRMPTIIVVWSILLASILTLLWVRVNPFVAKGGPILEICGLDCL
Assay: split reporter; BiFC: Y/N and Y/C fragments of YFP each linked to the N-terminus of the proteins, transiently expressed in leaves of 3-week-old N. benthamiana; YFP fluorescence by confocal microscopy 3 days after infiltration
Conditions: remark: other sources report otherwise

binding: binds
B1: KORRIGAN1 (KOR1), full length, split-YFP (BiFC) fusion, Q38890 1-621 (protein)
chain: MYGRDPWGGPLEINTADSATDDDRSRNLNDLDRAALSRPLDETQQSWLLGPTEQKKKKYVDLGCIIVSRKIFVWTVGTLVAAALLAGFITLIVKTVPRHHPKTPPPDNYTIALHKALKFFNAQKSGKLPKHNNVSWRGNSGLQDGKGETGSFYKDLVGGYYDAGDAIKFNFPMAYAMTMLSWSVIEYSAKYEAAGELTHVKELIKWGTDYFLKTFNSTADSIDDLVSQVGSGNTDDGNTDPNDHYCWMRPEDMDYKRPVTTCNGGCSDLAAEMAAALASASIVFKDNKEYSKKLVHGAKVVYQFGRTRRGRYSAGTAESSKFYNSSMYWDEFIWGGAWMYYATGNVTYLNLITQPTMAKHAGAFWGGPYYGVFSWDNKLAGAQLLLSRLRLFLSPGYPYEEILRTFHNQTSIVMCSYLPIFNKFNRTNGGLIELNHGAPQPLQYSVNAAFLATLYSDYLDAADTPGWYCGPNFYSTSVLRDFARSQIDYILGKNPRKMSYVVGFGTKYPRHVHHRGASIPKNKVKYNCKGGWKWRDSKKPNPNTIEGAMVAGPDKRDGYRDVRMNYNYTEPTLAGNAGLVAALVALSGEEEATGKIDKNTIFSAVPPLFPTPPPPPAPWKP
